Assay results reported in PubChem BioAssay AID330 (DTP/NCI, 2004).
The list is a part of this screen's results and no random one: it is rich in T/C values a quarter to a half above the control, in often repeated tests (any T/C) and in doses without a T/C. Other doses and runs of a compound stand elsewhere. T/C is the treated group as % of the vehicle group. Some doses have a count of surviving animals in place of a T/C: the source holds a T/C of zero for them, seemingly a mark for toxic or unscored doses. Some doses without a T/C left all or most animals alive at the check, yet need not have been tolerated: the source hardly ever lists a survival T/C far under the control, and the zero likely stands for such cases as well. Counts of survivors are from the toxicity check (mostly the fifth day) where no day follows; animals may have died later. Schedules are NCI's codes, taken here to give the interval after Q, in days (D) or hours (H), and the number of doses after X. Some entries hold several experiments; the values are given in rising order. For survival time, this PubChem deposit counts one and a half times the control or more as active, and values a quarter to a half above the control carry no call in these data; other NCI protocols may use other cut-offs. Signs of the kind (2×) stand for listed records that agree.

System: P388 leukemia ip, CD2F1 mice, survival T/C
Test: NCI In Vivo Anticancer Drug Screen. Data for tumor model P388 Leukemia (intraperitoneal) in CD2F1 (CDF1) mice
Conditions: T/C endpoint: median survival time, higher T/C = longer survival
[1] = dose: 200.0 mg/kg/injection, schedule: Q01DX009 (ip), vehicle: saline
[2] = dose: 100.0 mg/kg/injection, schedule: Q01DX005 (ip), vehicle: saline with Tween-80
[3] = dose: 200.0 mg/kg/injection, schedule: Q01DX005 (ip), vehicle: saline with Tween-80
[4] = dose: 50.0 mg/kg/injection, schedule: Q01DX005 (ip), vehicle: saline with Tween-80
[5] = dose: 200.0 mg/kg/injection, schedule: Q01DX005 (ip), vehicle: Klucel (hydroxypropylcellulose) (HPC)
[6] = dose: 100.0 mg/kg/injection, schedule: Q01DX009 (ip), vehicle: saline with Tween-80
[7] = dose: 400.0 mg/kg/injection, schedule: Q01DX009 (ip), vehicle: Klucel (hydroxypropylcellulose) (HPC)
[8] = dose: 200.0 mg/kg/injection, schedule: Q01DX009 (ip), vehicle: Klucel (hydroxypropylcellulose) (HPC)
[9] = dose: 200.0 mg/kg/injection, schedule: Q01DX005 (ip), vehicle: saline

In the case of COc1ccc(CC2C(=O)NC(C)C(=O)N(C)C3C(=O)N(C)C(Cc4ccc(OC)c(c4)Oc4ccc(cc4)C3O)C(=O)NC(C)C(=O)NC(C)C(=O)N2C)cc1 (stereo unspecified), the T/C (dose: 0.5 mg/kg/injection, schedule: Q01DX009 (ip), vehicle: distilled water + alcohol) is reported as 125 % of control, the T/C (dose: 1.0 mg/kg/injection, schedule: Q01DX009 (ip), vehicle: distilled water + alcohol) is reported as 134 % of control and the survivor count (dose: 2.0 mg/kg/injection, schedule: Q01DX009 (ip), vehicle: distilled water + alcohol) is reported as 2 of 6. For the same molecule, the survivor count (dose: 4.0 mg/kg/injection, schedule: Q01DX009 (ip), vehicle: distilled water + alcohol) was 1 of 6.
In the case of CCOC(=O)/C(N)=N/N=Nc1ccc([N+](=O)[O-])cc1, the survivor count [1] is reported as 6 of 6.
Cc1c(NC(=O)CCl)c(=O)oc2c(C)c3occc(=O)c3cc12 was tested, and the survivor count (dose: 120.0 mg/kg/injection, schedule: Q01DX005 (ip), vehicle: saline with Tween-80) was 5 of 6.
In the case of CC(O)(c1ccccc1)C1C(c2ccccc2)N1Cc1ccccc1 (stereo unspecified), the survivor count (dose: 200.0 mg/kg/injection, schedule: Q04DX003 (ip), vehicle: saline sonified) is reported as 6 of 6.
In the case of O=C1N(Cl)C2(c3ccccc3)N(Cl)C(=O)N(Cl)C2(c2ccccc2)N1Cl (stereo unspecified), the survivor count (dose: 100.0 mg/kg/injection, schedule: Q04DX003 (ip), vehicle: Klucel (hydroxypropylcellulose) (HPC)) is reported as 1 of 6 and 2 of 6, the survivor count (dose: 200.0 mg/kg/injection, schedule: Q04DX003 (ip), vehicle: Klucel (hydroxypropylcellulose) (HPC)) is reported as 1 of 6 and the survivor count (dose: 400.0 mg/kg/injection, schedule: Q04DX003 (ip), vehicle: Klucel (hydroxypropylcellulose) (HPC)) is reported as 1 of 6.
Oc1c(Br)cc(Br)cc1/C=N/NC(=S)NC12CC3CC(CC(C3)C1)C2 was tested, and the survivor count (dose: 15.0 mg/kg/injection, schedule: Q01DX005 (ip), vehicle: Klucel (hydroxypropylcellulose) (HPC)) was 6 of 6, the survivor count (dose: 30.0 mg/kg/injection, schedule: Q01DX005 (ip), vehicle: Klucel (hydroxypropylcellulose) (HPC)) was 6 of 6 and the survivor count (dose: 60.0 mg/kg/injection, schedule: Q01DX005 (ip), vehicle: Klucel (hydroxypropylcellulose) (HPC)) was 6 of 6.
For CCN(CC)CCOc1ccccc1C(C)=O, the survivor count [2] was 2 of 6 and the survivor count [3] was 0 of 6.
COc1cccc(C=Nc2cc(C)ccn2)c1O.COc1cccc(C=Nc2cc(C)ccn2)c1O.[Cu] was tested, and the survivor count [4] was 1 of 6, the survivor count [2] was 0 of 6 and the survivor count [3] was 0 of 6.
For CN1CCCC2Cc3ccccc3CC21 (stereo unspecified), the survivor count (dose: 200.0 mg/kg/injection, schedule: Q04DX002 (ip), vehicle: Klucel (hydroxypropylcellulose) (HPC)) was 5 of 6 and the survivor count (dose: 400.0 mg/kg/injection, schedule: Q04DX002 (ip), vehicle: Klucel (hydroxypropylcellulose) (HPC)) was 5 of 6.
For CC(=O)OCn1cc2c3c(cccc31)C1CC(C)CN(C)C1C2 (stereo unspecified), the survivor count [2] was 3 of 6 and the survivor count [3] was 0 of 6.
CN(C)c1ncnc2c1ncn2CCn1cnc2c(N(C)C)ncnc21 was tested, and the survivor count [5] was 0 of 6.
In the case of Nc1cccc(S(=O)(=O)Nc2ncc(Cl)cn2)c1.[Ag], the survivor count [1] is reported as 0 of 6.
For Cc1cc(O)c(C=O)c2c1C(=O)Oc1c(CO)c(O)c3c(c1O2)C(O)OC3=O (stereo unspecified), the T/C (dose: 25.0 mg/kg/injection, schedule: Q01DX009 (ip), vehicle: saline with Tween-80) was 129 % of control (2×), the T/C (dose: 50.0 mg/kg/injection, schedule: Q01DX009 (ip), vehicle: saline with Tween-80) was 131 % of control and the survivor count [6] was 0 of 6 and 1 of 6. The survivor count (dose: 200.0 mg/kg/injection, schedule: Q01DX009 (ip), vehicle: saline with Tween-80) was 0 of 6.
With Nc1cc(Cl)ccc1-c1ccccc1 the survivor count [7] was 1 of 6.
For CC(C)C(NC(=O)CCl)C(=O)O (stereo unspecified), the survivor count [7] was 0 of 6.
For CN(C)/N=C/c1c[nH]c2ccccc12, the survivor count [8] was 5 of 6 and the survivor count [7] was 0 of 6.
For CN1C(=O)Cn2c(n[nH]c(=O)c2=O)-c2cc(Cl)ccc21, the survivor count [8] was 4 of 6.
In the case of CCCC(C)N(CC)CCNc1cc(OC)cc2cccnc12 (stereo unspecified), the survivor count [9] is reported as 0 of 5.
With COc1cc(NCCN)c2ncsc2c1 the survivor count [9] was 0 of 6.
CSC(=S)n1nc(C)c(N=Nc2cc(Cl)ccc2Cl)c1C was tested, and the survivor count [4] was 6 of 6 and the survivor count [2] was 6 of 6.
With COc1ccc2c(NCCCCCCNc3c4ccccc4nc4cc(OC)ccc34)c3ccccc3nc2c1 the T/C (dose: 1.25 mg/kg/injection, schedule: Q01DX009 (ip), vehicle: other) was 144 % of control, the T/C (dose: 2.5 mg/kg/injection, schedule: Q01DX009 (ip), vehicle: other) was 146 % of control and the T/C (dose: 3.75 mg/kg/injection, schedule: Q01DX009 (ip), vehicle: other) was 147 % of control. The T/C (dose: 7.5 mg/kg/injection, schedule: Q01DX009 (ip), vehicle: other) was 149 % of control, the survivor count (dose: 15.0 mg/kg/injection, schedule: Q01DX009 (ip), vehicle: other) was 4 of 6 and the survivor count (dose: 20.0 mg/kg/injection, schedule: Q01DX009 (ip), vehicle: other) was 0 of 6.
With Cc1c[n+]([O-])ccc1Br the survivor count (dose: 100.0 mg/kg/injection, schedule: Q01DX009 (ip), vehicle: water) was 5 of 6.
For COc1ccccc1NC(=O)CC(=O)N1N=C(C)C(N=Nc2cccc(C(=O)O)c2)C1=O (stereo unspecified), the survivor count (dose: 240.0 mg/kg/injection, schedule: Q01DX005 (ip), vehicle: saline with Tween-80) was 2 of 6.
With N#Cc1c(-c2ccc(F)cc2)c(-c2ccc(F)cc2)nn(CCO)c1=O the T/C (dose: 50.0 mg/kg/injection, schedule: Q04DX002 (ip), vehicle: distilled water + Tween-80) was 142 % of control, the T/C (dose: 100.0 mg/kg/injection, schedule: Q01DX005 (ip), vehicle: distilled water + Tween-80) was 126 % of control and the survivor count (dose: 200.0 mg/kg/injection, schedule: Q04DX002 (ip), vehicle: distilled water + Tween-80) was 5 of 6 and 6 of 6. For the same molecule, the survivor count (dose: 800.0 mg/kg/injection, schedule: Q01DX005 (ip), vehicle: distilled water + Tween-80) was 3 of 6.
With CCCc1c(Cl)nc(Cl)nc1Cl the T/C [6] was 127 % of control, the T/C (dose: 100.0 mg/kg/injection, schedule: Q04DX003 (ip), vehicle: saline with Tween-80) was 130 % of control and the survivor count (dose: 150.0 mg/kg/injection, schedule: Q01DX009 (ip), vehicle: saline with Tween-80) was 3 of 6. For the same molecule, the survivor count (dose: 200.0 mg/kg/injection, schedule: Q04DX003 (ip), vehicle: saline with Tween-80) was 3 of 6 and the survivor count (dose: 400.0 mg/kg/injection, schedule: Q04DX003 (ip), vehicle: saline with Tween-80) was 3 of 6.
In the case of COc1ccc2c3c(ccc2c1)C(=O)/C(=C\O)CC3, the survivor count (dose: 100.0 mg/kg/injection, schedule: Q01DX005 (ip), vehicle: Klucel (hydroxypropylcellulose) (HPC)) is reported as 4 of 5 and the survivor count [5] is reported as 0 of 5.
